# Results from publication PMC11289934.
# Sequences of proteins named here, by UniProt entry; tags and fusion partners are left off.
# UniProt Q9Y6M1: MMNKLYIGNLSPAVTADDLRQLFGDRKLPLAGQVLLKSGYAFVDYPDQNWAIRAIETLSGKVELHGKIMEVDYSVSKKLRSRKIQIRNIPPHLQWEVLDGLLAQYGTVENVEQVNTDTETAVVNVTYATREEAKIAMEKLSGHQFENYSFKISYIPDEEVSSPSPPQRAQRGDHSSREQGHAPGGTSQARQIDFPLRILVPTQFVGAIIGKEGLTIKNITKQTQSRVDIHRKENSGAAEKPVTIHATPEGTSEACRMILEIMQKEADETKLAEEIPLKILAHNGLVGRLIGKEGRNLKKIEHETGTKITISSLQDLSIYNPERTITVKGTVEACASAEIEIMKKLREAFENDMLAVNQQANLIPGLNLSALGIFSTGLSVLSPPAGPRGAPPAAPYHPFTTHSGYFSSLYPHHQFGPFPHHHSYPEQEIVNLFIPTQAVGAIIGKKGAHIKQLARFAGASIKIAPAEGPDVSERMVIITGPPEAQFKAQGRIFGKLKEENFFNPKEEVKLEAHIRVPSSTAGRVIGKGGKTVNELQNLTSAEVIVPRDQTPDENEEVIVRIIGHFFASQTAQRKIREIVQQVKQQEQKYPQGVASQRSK
# UniProt Q14258: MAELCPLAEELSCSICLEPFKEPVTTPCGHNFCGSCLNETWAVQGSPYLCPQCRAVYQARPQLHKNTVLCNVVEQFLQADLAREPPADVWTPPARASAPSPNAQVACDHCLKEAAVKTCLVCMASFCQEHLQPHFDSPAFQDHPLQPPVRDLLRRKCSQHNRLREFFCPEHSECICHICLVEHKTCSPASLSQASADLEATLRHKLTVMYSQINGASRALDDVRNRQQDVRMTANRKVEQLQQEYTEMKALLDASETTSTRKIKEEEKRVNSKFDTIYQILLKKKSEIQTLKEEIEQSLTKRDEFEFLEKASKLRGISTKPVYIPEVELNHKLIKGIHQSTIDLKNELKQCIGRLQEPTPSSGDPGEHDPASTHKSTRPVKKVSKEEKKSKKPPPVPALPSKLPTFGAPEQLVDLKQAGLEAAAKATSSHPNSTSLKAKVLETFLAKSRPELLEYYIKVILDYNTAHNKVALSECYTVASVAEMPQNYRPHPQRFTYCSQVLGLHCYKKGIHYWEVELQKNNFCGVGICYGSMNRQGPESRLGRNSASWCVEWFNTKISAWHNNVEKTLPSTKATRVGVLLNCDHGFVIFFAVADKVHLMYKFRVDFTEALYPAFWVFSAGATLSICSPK
# No constants are given. Whether binding was seen depends on the method and setting. Binding seen in cells or lysates may run through a third protein. Some binding calls cover weakened binding; strength is not graded here.
# Target: IGF2BP2 (human (endogenous in MKN-45 and MKN-28)) (UniProt Q9Y6M1)
# Assay: co-IP; RIPA lysates with PMSF; anti-IGF2BP2 or anti-TRIM25, 2 h at room temperature, protein A/G PLUS-agarose overnight at 4 °C, Western blot; IgG as negative control; also in circRHBDD1-silenced MKN-45 and circRHBDD1-overexpressing MKN-28 cells (proteasome inhibition)
substance,measurement,value
E3 ligase TRIM25 (from UniProt Q14258 1-630) (enzyme),binding,binds
